# Some of these results come from one statement about several compounds together. For at least one compound, name, drawing or mass did not settle the structure.
# Tested on: Chenopodium album
# Test: Greenhouse post-emergence herbicidal activity against CHEAL
# Assay type: in vivo
# Details: application rate 0.5 kg/ha, scale 0 to 100
structure (smiles),measurement,value
"COCCOc1cccc(C2=C(O)c3nccnc3N(CC(F)F)S2(=O)=O)c1C(F)(F)F [I-6, 1-(2,2-difluoroethyl)-3-[3-(2-methoxyethoxy)-2-(trifluoromethyl)phenyl]-2,2-dioxo-pyrazino[2,3-c]thiazin-4-ol]",herbicidal activity against CHEAL,very good (a very good herbicidal activity is given at values of at least 85)

# — US8575068B2, “Pyrazinothiazines having herbicidal action” (BASF SE, priority 2010, dated 2013)
